Data from PMC8436934.

Target: Neuronal PAS Domain Protein 2 (NPAS2) (rat (endogenous in rat myocardial tissue and H9c2))
Assay: co-IP; extracts of rat myocardial tissue and of H9c2 cells; immunoprecipitation with anti-NPAS2 or anti-Cry2 antibody, Western blot for Cry2 or NPAS2

binding: binds
B1: Cryptochrome circadian regulator 2 (Cry2) (protein, UniProt Q923I8 1-594)
chain: MAAAAVVAATVPVQSMGADGASSVHWFRKGLRLHDNPALLAAVRGARCVRCVYILDPWFAASSSVGINRWRFLLQSLEDLDTSLRKLNSRLFVVRGQPADVFPRLFKEWGVTRLTFEYDSEPFGKERDAAIMKMAKEAGVEVVTENSHTLYDLDRIIELNGQKPPLTYKRFQALISRMELPKKPVGAVSSQHMENCRAEIQENHDDTYGVPSLEELGFPTEGLGPAVWQGGETEALVRLDKHLERKAWVANYERPRMNANSLLASPTGLSPYLRFGCLSCRLFYYRLWDLYRKVKRNSTPPLSLFGQLLWREFFYTAATNNPRFDRMEGNPICIQIPWDRNPEALAKWAEGKTGFPWIDAIMTQLRQEGWIHHLARHAVACFLTRGDLWVSWESGVRVFDELLLDADFSVNAGSWMWLSCSAFFQQFFHCYCPVGFGRRTDPSGDYIRRYLPKLKGFPSRYIYEPWNAPESVQKAANCIIGVDYPRPIVNHAETSRLNIERMKQIYQQLSRYRGLCLWASVPSCVEDLSHPVAEPGSSQAGSISNTGPRPLSSGPASPKRKLEAAEEPPGEELSKRARVTVTQMPAQEPPSKDS

Results are given in words; binding and its absence hold for the method and conditions named. Binding seen in cells or lysates may run through a third protein. Binding can be weak; no strength is given.
